Reference: PubChem BioAssay AID686943 (Drosophila RNAi Screening Center, 2013)
Screen: 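Search across the genome for regulators of signalling from receptor tyrosine kinase to ERK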 (primary screen). Cells: Drosophila S2R+ haemocyte-like cells expressing YFP-tagged ERK (Rolled). Reagents: long dsRNA against Drosophila genes. Challenge: insulin stimulation versus unstimulated cells; dose and duration not given. Read-out: 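Antibody staining for doubly phosphorylated ERK divided by ERK-YFP signal, as plate z-scores, in insulin-treated and untreated cells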. Scale: replicate 1, z-score of dpERK with insulin and replicate 2, z-score of dpERK with insulin: higher = more active ERK per ERK-YFP after insulin; replicate 1, z-score of dpERK under basal conditions: higher = more basal active ERK per ERK-YFP.
The deposit covers about 23,000 reagents; below is an unselected part of those that have a named target and a result. 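Extra replicates exist only for a retested subset of genes; insulin dose and duration not given; both raised and lowered dpERK matter.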 Names joined by + are all predicted targets of the reagent. Not all columns of the deposit are shown. The record does not give: the amount of reagent, the time to read-out.

Gene	DRSC id	replicate 1, z-score of dpERK with insulin	replicate 2, z-score of dpERK with insulin	replicate 1, z-score of dpERK under basal conditions
kst	DRSC08719	1.32	-1.06	1.49
Glyp	DRSC00752	-1.18	-0.85	-0.75
net	DRSC00309	0.89	-0.47	0.91
a10	DRSC11319	-0.94	-0.01	-0.81
Mco4	DRSC20061	-0.11	0.15	-0.46
CaMKII	DRSC17214	-0.06	-2.04	0.13
CG32507	DRSC20421	-0.3	1.02	1.08
CG44251	DRSC06856	0.73	0.58	0.72
ICA69	DRSC11621	-0.21	-0.85	-0.1
fzr2	DRSC04280	0.59	0.15	0.37
CG32461	DRSC11594	-0.24	1.06	1.93
Lon	DRSC11049	0.06	-0.1	-2.67
CG5355	DRSC02844	-0.39	0.38	0.37
CHKov2	DRSC14262	-0.21	0.06	0.05
dally	DRSC08954	0.26	0.44	-0.42
dally	DRSC11338	0.13	0.4	0.22
Hsp70Aa + Hsp70Bb + Hsp70Ba + 3 more	DRSC15380	0.16	-2.2	-0.05
CG12728	DRSC17883	0.46	-1.09	-0.11
CG17493	DRSC03798	-0.8	0.08	-2.27
CG8833	DRSC11050	0.56	0.86	0.2
Sec16	DRSC19788	1.34	0.95	0.26
Sec16	DRSC19858	-0.19	0.38	-0.61
Prp39	DRSC15133	-0.79	2.38	-0.27
CG13527	DRSC04169	-0.09	0.55	-0.06
Unc-115a	DRSC12749	-0.41	0.4	0.33
CG30429	DRSC04040	-0.05	0.49	-0.52
Rnf146	DRSC11045	-0.88	-0.18	-0.79
CG13220	DRSC06342	-0.42	-0.26	-0.74
CG15498	DRSC15040	0.12	0.2	-0.97
Or67c	DRSC11242	-0.04	0.17	-1.61
NAT1	DRSC06854	0.18	-1.01	-0.3
crol	DRSC03514	0.07	-0.81	-0.31
crol	DRSC21348	0.43	-0.57	-1.24
peng	DRSC20583	-0.49	-0.16	-0.98
CG12773	DRSC18580	0.34	-0.6	-0.3
CG33223	DRSC17572	-0.65	-0.52	-0.65
CG30394	DRSC04074	1.53	0.67	0.85
CG30394	DRSC04260	0.98	0.91	0.28
ATP7	DRSC19819	0.53	0.38	1.56
